Laboratory results as given in PubChem BioAssay AID588590 (National Center for Advancing Translational Sciences (NCATS), 2011).
Where “and” joins values, the source holds several entries; their conditions need not be identical. Equal values may be shown once. Screen size: about 390,000 compounds; about 4,000 (1%) were called active. This list was built around the results that the source calls inconclusive (neither active nor inactive); the mix of calls is not that of the screen. Calls come from the whole dose curve; as a rule, active = well fitted inhibition curve with a large enough effect; inconclusive = small, poorly fitted or top-dose-only effect, or another doubt; inactive = no such curve, though single readings can be large or run the other way. Potencies beside an inconclusive call are fits to weak or partial responses and may not hold up.

Sequences of proteins named here, by UniProt entry; tags and fusion partners are left off. A change or cut given only in a name is not applied to a line headed by its entry.
UniProt Q9UNA4: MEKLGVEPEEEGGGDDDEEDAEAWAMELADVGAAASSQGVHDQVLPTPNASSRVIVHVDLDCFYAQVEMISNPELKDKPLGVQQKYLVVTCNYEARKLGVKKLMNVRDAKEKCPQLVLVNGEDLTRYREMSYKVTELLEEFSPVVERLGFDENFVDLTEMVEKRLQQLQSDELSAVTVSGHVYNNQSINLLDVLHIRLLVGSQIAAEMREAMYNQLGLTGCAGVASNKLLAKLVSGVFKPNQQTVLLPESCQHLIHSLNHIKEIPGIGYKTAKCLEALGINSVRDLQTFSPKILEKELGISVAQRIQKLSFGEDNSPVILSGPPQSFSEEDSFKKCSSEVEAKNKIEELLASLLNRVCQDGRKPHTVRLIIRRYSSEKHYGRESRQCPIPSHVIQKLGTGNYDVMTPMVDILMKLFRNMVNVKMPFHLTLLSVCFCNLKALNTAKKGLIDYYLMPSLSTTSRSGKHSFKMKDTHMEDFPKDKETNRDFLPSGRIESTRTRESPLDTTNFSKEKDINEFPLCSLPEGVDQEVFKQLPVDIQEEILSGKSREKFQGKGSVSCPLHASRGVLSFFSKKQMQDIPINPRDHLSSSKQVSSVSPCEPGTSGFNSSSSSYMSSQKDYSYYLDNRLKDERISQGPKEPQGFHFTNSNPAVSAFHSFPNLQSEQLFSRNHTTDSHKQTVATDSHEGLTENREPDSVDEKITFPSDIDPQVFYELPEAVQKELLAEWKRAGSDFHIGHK

These molecules were tested against DNA polymerase iota (Homo sapiens) (UniProt Q9UNA4) (assay: qHTS for Inhibitors of Polymerase Iota). Conditions: Pol iota fluorescent replication assay, 10 min; series mostly up to 115 µM; activity, negative = inhibition: at the top concentration.
Outline: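 Pol iota at 10 nM preincubated 15 min with compounds at room temperature; reaction started with fluorescent substrate, 50 nM final. Fluorescence read kinetically at 0 and 10 min; buffer-only wells as negative control.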
Potency is the fitted concentration of half-maximal effect.

| Structure (SMILES) | Potency | activity, negative = inhibition |
| --- | --- | --- |
| O=[N+]([O-])c1ccc(S(=O)(=O)N/N=C/c2ccc3c(c2)OCO3)cc1 | inconclusive: 89.1 µM [inhibitor, partial curve] | – |
| COC(=O)C1=C(C)N(Cc2ccccc2)C(=S)N[C@H]1c1ccccc1 | – | inactive: 5.25% |
| COc1ccccc1-c1nc2cc(NC(=O)c3ccccc3Cl)ccc2o1 | inconclusive: 79.4 µM [inhibitor, partial curve, poor fit] | – |
| CC(C)n1cc(C(=O)c2ccccc2O)cc(C#N)c1=O | – | inactive: -7.25% |
| Cc1cc(CN(C)C(=O)c2cc(COc3ccc(C)c(C)c3)on2)n[nH]1 | inconclusive: 89.1 µM [inhibitor, partial curve, poor fit] | – |
| CCOC(=O)C1CCCN(C(=O)COC(=O)C2=COCCO2)C1 (stereo not drawn) | inconclusive: 17.8 µM [inhibitor, partial curve, poor fit] | – |
| O=C(O)/C(CC(=O)c1ccc(Cl)cc1)=N/Nc1ccc([N+](=O)[O-])cc1[N+](=O)[O-] | inconclusive: 31.6 µM [inhibitor, partial curve, poor fit] | – |
| COc1ccc(NC(=O)C2CC3CCC2C3)c(OC)c1 (stereo not drawn) | inconclusive: 89.1 µM [inhibitor, single point] | – |
| N#Cc1c(-c2ccc3c(c2)OCO3)cc[nH]c1=O | inconclusive: 7.94 µM [inhibitor, partial curve, poor fit] | – |
| O=C(NCCc1ccc(Cl)cc1)C(=O)NCC(c1cccs1)S(=O)(=O)c1ccccc1 (stereo not drawn) | – | inactive: -16.4% |
| O=c1[nH]c(=O)n(Cc2ccccc2)c2nc(-c3cccs3)n(CCO)c12 | – | inactive: -14.8% |
| CCCCCn1c(=O)[nH]c2cc(C(=O)N3CCN(Cc4ccc5c(c4)OCO5)CC3)ccc2c1=O | inconclusive: 1.12 µM [inhibitor, partial curve, poor fit] | – |
| COc1ccc(OC)c(NC(=O)CSc2ncnc3sc(C)cc23)c1 | inconclusive: 20 µM [inhibitor, full curve, poor fit] | – |
| CCOc1ccccc1-n1nnnc1SCC(=O)NC(=O)NCc1ccco1 | inconclusive: 44.7 µM [inhibitor, partial curve, poor fit] | – |
| CN(C)CCC(c1ccccc1)c1ccccn1 (stereo not drawn) | inconclusive: 70.8 nM [inhibitor, full curve, poor fit] and inconclusive: 4.47 µM [inhibitor, partial curve, poor fit] | – |
| CCOC(=O)C(=Cc1cc(=O)c(OC)co1)C(=O)OCC | inconclusive: 35.5 µM [inhibitor, partial curve, poor fit] | – |
| O=C(Cc1ccc(Cl)cc1)Nc1ccc2oc(-c3ccccc3F)nc2c1 | inconclusive: 39.8 µM [inhibitor, single point] | – |
| NS(=O)(=O)c1ccc(NC(=O)c2cc(Cl)ccc2Cl)cc1 | inconclusive: 89.1 µM [inhibitor, single point] | – |
| O=c1[nH]c(=S)[nH]c2c1C(c1ccc(Br)cc1)c1c([nH]c(=S)[nH]c1=O)O2 | active: 1 µM | – |
| CCc1cccc(C)c1NC(=O)CCS(=O)(=O)c1ccc2c(c1)oc(=O)n2C | inconclusive: 79.4 µM [inhibitor, single point] | – |

Part of the list above, with bars between the fields:
Structure (SMILES) | Potency | activity, negative = inhibition
COc1ccccc1-c1nc2cc(NC(=O)c3ccccc3Cl)ccc2o1 | inconclusive: 79.4 µM [inhibitor, partial curve, poor fit] | –
COc1ccc(NC(=O)C2CC3CCC2C3)c(OC)c1 (stereo not drawn) | inconclusive: 89.1 µM [inhibitor, single point] | –

Remaining list, next part:

| Structure (SMILES) | Potency | activity, negative = inhibition |
| --- | --- | --- |
| C#CCOCCOCCOCCNc1nc(N2CCN(C(=O)[C@H]([C@@H](C)CC)n3cc([C@@H](N)Cc4ccc(O)cc4)nn3)CC2)nc(N2CCN(C(=O)[C@H](CCCCN)n3cc([C@@H](N)C(C)CC)nn3)CC2)n1 (stereo partly drawn) | inconclusive: 15.8 µM [inhibitor, full curve, poor fit] | – |
| CCOc1c(Br)cc(/C=C2\C(=O)N(CCC#N)N=C2C)cc1OC | active: 0.794 µM | – |
| NC(=O)c1ccsc1NC(=O)CSc1nnc2ccccn12 | inconclusive: 50.1 µM [inhibitor, partial curve, poor fit] | – |
| CCOC(=O)CCCCCC(=O)Nc1ccc2c(c1)C(=O)N([C@H](C)CO)C[C@H](C)[C@@H](CN(C)C(=O)Nc1ccc(OC)cc1)O2 | – | inactive: 20.9% |
| O=C(COc1ccc(S(=O)(=O)N2CCCC2)cc1)NCc1ccco1 | inconclusive: 20 µM [inhibitor, partial curve, poor fit] | – |
| COc1ccccc1NC(=O)c1sc2nc(C)c(C(=O)Nc3ccc(C)cc3C)c(-c3ccccc3Cl)c2c1N | – | inactive: -0.486% |
| NC(=O)[C@@H]1CCCCNc2c(I)cc([N+](=O)[O-])cc2C(=O)N[C@@H](CCC(=O)O)C(=O)N[C@@H](CO)C(=O)N1 | active: 17.8 µM | – |
| Cc1ccc(-n2nc3c(=O)n(C(C)C(=O)NCc4ccccc4C)nc(C)c3c2C)cc1 (stereo not drawn) | – | inactive: -25.5% |
| CCc1ccccc1NC(=O)NC(CC)Cn1nnc2ccccc2c1=O (stereo not drawn) | inconclusive: 89.1 µM [inhibitor, partial curve, poor fit] | – |
| COc1ccc(NC(=O)C(C(C)C)N2Cc3ccccc3C2=O)cc1 (stereo not drawn) | inconclusive: 100 µM [inhibitor, single point] | – |
| CC(C)NC(=O)c1sc(=S)n2c1[nH]c(=O)c1ccc(C(=O)NCCc3ccc(Cl)cc3)cc12 | inconclusive: 70.8 µM [inhibitor, single point] | – |
| O=C(COC(=O)CNS(=O)(=O)c1cccc(Br)c1)NC(=O)Nc1ccc2c(c1)OCCO2 | inconclusive: 112 µM [inhibitor, single point] | – |
| COc1ccc(CN2CCNC(=O)C2CC(=O)N(Cc2nccn2C)C(C)C)c(OC)c1 (stereo not drawn) | inconclusive: 100 µM [inhibitor, single point] | – |
| CCC(=O)Nc1sc2c(c1C(=O)Nc1ccc(Br)cc1)CCCCC2 | inconclusive: 14.1 µM [inhibitor, full curve] | – |
| Cc1ccc(-n2nc3c(=O)n(C(C)C(=O)NCc4ccc5c(c4)OCO5)nc(C)c3c2C)cc1 (stereo not drawn) | inconclusive: 56.2 µM [inhibitor, partial curve, poor fit] | – |
| COc1ccc(CCNC(=O)c2ccc(Cn3c(=O)[nH]c4cc(OC)c(OC)cc4c3=O)cc2)cc1OC | – | inactive: -7.4% |
| CCOC(=O)c1sc(NC(=O)C(C)C)c(C#N)c1C | inconclusive: 3.55 µM [inhibitor, full curve, poor fit] | – |
| COC(=O)c1ccccc1NC(=O)c1cc[n+]([O-])cc1 | inconclusive: 31.6 µM [inhibitor, partial curve, poor fit] | – |
| O=C(Nc1ccc2c(c1)nc1n2CCN(Cc2ccccc2)C1)NC1CCCCC1 | inconclusive: 31.6 µM [inhibitor, partial curve, poor fit] | – |
| CC(C)C[C@@H](CNCC(=O)[C@H](Cc1c[nH]c2ccccc12)NC(=O)c1[nH]cnc1C(=O)N[C@H](CN)CC(C)C)NC(=O)c1nc[nH]c1C(=O)N[C@@H](CC(=O)O)C(=O)O | inconclusive: 3.98 µM [inhibitor, full curve, poor fit] | – |

| Structure (SMILES) | Potency | activity, negative = inhibition |
| --- | --- | --- |
| CC(Oc1ccccc1)C(=O)Nc1nc(-c2ccncc2)cs1 (stereo not drawn) | – | inactive: -2.02% |
| CCOc1cc(C(c2c(C)[nH][nH]c2=O)c2c(C)[nH][nH]c2=O)ccc1OS(=O)(=O)c1ccc(C)cc1 | inconclusive: 3.55 µM [inhibitor, full curve, poor fit] | – |
| COc1cc2c(NC3CCN(C)CC3)nc(N3CCCN(C)CC3)nc2cc1OCCCCN(C)C | inconclusive: 50.1 µM [inhibitor, partial curve, poor fit] | – |
| COc1ccc(C(=O)Nc2sc3c(c2C(=O)NCc2ccco2)CCCC3)cc1OC | inconclusive: 56.2 µM [inhibitor, partial curve, poor fit] | – |
| O=C1c2ccccc2NC(c2cccc(O)c2)N1O (stereo not drawn) | inconclusive: 1.78 µM [inhibitor, partial curve, poor fit] | – |
| CC(CCc1ccccc1)NC(=O)CSc1ccccn1 (stereo not drawn) | inconclusive: 89.1 µM [inhibitor, single point] | – |
| Cc1ccc(-c2cc(=O)c3ccc(F)cc3[nH]2)cc1 | inconclusive: 89.1 µM [inhibitor, single point] | – |
| O=C(Nc1ccc(-n2nncc2-c2ccco2)cc1)c1cc2ccccc2oc1=O | active: 11.2 µM | – |
| COc1ccc(NC(=S)NCCCCCC(=O)C[N+](=O)[O-])cc1 | inconclusive: 39.8 µM [inhibitor, partial curve, poor fit] | – |
| COc1ccccc1/C=C1\N=C(C(C)(C)C)OC1=O | inconclusive: 31.6 µM [inhibitor, full curve, poor fit] | – |
| O=C(CCC(=O)OCC(=O)c1cccc([N+](=O)[O-])c1)NC1CCCCC1 | inconclusive: 44.7 µM [inhibitor, partial curve, poor fit] | – |
| O=S(=O)(NC(=S)NC1CCCCC1)c1ccc(Cl)cc1 | inconclusive: 7.94 µM [inhibitor, full curve, poor fit] | – |
| CCOc1ccc(C2C(C(=O)c3ccc(C)o3)=C(O)C(=O)N2c2nc(C)c(C(=O)OC)s2)cc1 (stereo not drawn) | inconclusive: 11.2 µM [inhibitor, partial curve, poor fit] | – |
| C=C(C)COc1ccc(C2NC(=O)c3ccccc3O2)cc1OCC (stereo not drawn) | – | inactive: 179% |
| COc1ccc(NC(=O)CSc2c(C)nn(-c3nnc(C)c(=O)[nH]3)c2C)cc1 | inconclusive: 12.6 µM [inhibitor, partial curve, poor fit] | – |
| O=C(CCC(=O)c1cccs1)Nc1ncccc1O | inconclusive: 56.2 µM [inhibitor, partial curve, poor fit] | – |
| O=C(COC(=O)CCc1nc2ccccc2s1)Nc1ncc(Cl)cc1Cl | inconclusive: 44.7 µM [inhibitor, partial curve, poor fit] | – |
| CCC(=O)N1CCc2cc(Br)cc(S(=O)(=O)N3CCN(c4ccccc4OC)CC3)c21 | – | inactive: 23.5% |

2 entries from above, comma-delimited:
Structure (SMILES),Potency,"activity, negative = inhibition"
CCOC(=O)CCCCCC(=O)Nc1ccc2c(c1)C(=O)N([C@H](C)CO)C[C@H](C)[C@@H](CN(C)C(=O)Nc1ccc(OC)cc1)O2,–,inactive: 20.9%
O=C1c2ccccc2NC(c2cccc(O)c2)N1O (stereo not drawn),"inconclusive: 1.78 µM [inhibitor, partial curve, poor fit]",–
